No constants are given. Whether binding was seen depends on the method and setting. Binding seen in cells or lysates may run through a third protein. Some binding calls cover weakened binding; strength is not graded here. Sequences can lack the tags named with a protein. Each block holds one molecule with its values, some of them ahead of it.
Experiments:
[1] = biological target: T1, GFP-CPSF73-I (cleavage and polyadenylation specificity factor 73 kDa-I), in transgenic Arabidopsis (Arabidopsis) (UniProt Q9C952); experiment: co-IP; IP from Arabidopsis harboring 35S::GFP-CPSF73-I or GFP-DSP4, Pol II looked for by western blot (the methods name N. benthamiana for GFP-CPSF73-I)
T1 sequence: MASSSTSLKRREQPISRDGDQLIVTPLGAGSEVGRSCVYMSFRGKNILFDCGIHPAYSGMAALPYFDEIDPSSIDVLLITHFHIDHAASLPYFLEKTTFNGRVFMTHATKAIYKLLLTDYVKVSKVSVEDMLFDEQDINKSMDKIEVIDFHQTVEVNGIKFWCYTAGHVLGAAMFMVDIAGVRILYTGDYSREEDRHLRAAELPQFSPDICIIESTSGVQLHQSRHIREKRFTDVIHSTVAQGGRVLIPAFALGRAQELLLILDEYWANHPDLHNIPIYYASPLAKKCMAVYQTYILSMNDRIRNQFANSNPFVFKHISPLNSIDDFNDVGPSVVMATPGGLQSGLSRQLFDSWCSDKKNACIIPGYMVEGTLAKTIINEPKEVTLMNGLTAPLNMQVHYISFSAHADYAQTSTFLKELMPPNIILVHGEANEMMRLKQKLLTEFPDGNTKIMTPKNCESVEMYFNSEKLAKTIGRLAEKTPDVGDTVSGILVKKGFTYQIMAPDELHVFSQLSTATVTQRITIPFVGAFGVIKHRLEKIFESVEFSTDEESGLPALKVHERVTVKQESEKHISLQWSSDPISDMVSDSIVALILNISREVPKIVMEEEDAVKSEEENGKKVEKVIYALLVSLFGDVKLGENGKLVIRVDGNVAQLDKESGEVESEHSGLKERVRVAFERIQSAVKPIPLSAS

Protein sequences, listed by entry. Tags and fused reporters are not part of them.
UniProt P38420: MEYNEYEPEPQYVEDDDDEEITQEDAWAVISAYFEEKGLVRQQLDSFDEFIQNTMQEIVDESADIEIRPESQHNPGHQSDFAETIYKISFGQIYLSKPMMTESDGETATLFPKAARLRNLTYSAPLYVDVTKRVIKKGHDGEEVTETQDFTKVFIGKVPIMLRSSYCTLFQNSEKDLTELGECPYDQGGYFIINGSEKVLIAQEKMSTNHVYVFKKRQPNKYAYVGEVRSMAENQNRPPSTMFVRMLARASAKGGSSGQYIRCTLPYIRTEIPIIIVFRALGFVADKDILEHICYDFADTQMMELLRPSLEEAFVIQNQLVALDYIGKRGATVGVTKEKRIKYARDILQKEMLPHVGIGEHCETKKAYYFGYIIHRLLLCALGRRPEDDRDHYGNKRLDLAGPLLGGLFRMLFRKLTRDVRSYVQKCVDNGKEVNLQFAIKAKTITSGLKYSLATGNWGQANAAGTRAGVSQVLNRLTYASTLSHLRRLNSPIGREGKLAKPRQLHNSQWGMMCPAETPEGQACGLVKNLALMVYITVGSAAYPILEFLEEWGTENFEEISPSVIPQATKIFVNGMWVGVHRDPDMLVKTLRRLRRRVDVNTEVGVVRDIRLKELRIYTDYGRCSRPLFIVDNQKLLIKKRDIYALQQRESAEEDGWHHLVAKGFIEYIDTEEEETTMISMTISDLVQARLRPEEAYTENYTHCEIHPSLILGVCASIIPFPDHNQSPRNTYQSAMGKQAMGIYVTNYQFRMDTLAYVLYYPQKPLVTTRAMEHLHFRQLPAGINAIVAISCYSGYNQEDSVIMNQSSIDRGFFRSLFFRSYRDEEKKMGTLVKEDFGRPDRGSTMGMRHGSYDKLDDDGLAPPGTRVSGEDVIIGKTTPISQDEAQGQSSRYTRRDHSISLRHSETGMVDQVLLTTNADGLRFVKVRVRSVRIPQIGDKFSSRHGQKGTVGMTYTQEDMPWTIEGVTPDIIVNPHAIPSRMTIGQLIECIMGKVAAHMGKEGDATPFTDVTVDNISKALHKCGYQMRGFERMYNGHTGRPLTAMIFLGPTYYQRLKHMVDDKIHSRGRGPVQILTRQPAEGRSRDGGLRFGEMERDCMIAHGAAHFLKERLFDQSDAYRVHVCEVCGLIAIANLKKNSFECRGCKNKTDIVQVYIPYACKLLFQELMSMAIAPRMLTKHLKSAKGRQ

[2] = biological target: T2, GFP-CPSF73-I, expressed in N. benthamiana (Arabidopsis) (UniProt Q9C952); experiment: co-IP; in vitro translated DSP3-MYC added to N. benthamiana protein extracts containing GFP-tagged proteins or GFP; western blot (paper: Co-IP/pull down)
T2 sequence: T1 sequence

binding [1]: no binding
Molecule: RPB2 (the second-largest subunit of Pol II) (from UniProt P38420 1-1188)

binding [2]: binds
B1: DSP3-MYC, in vitro translated (protein, UniProt Q8VZA0 1-936)
chain: MTSSMEEDDSISPESISLDTLASIRSLIINADTSDSVISSVFDFLTGLLSRGNSAILHHVLKLLSDLAFRRKELAPQIFDSILSNLLRLHNTVAEASHERAAVESLAVLASLSERTPSIAAALSKIDDEVFASICLGAPISSRLWLLRNADRFNVPSSVLFTLFLGFSKDPYPYIRKVALDGLINICNAGDFNHTHAVEGCYTRAVELLSDAEDSVRSSAVRAVSVWGKVMIASKEEEMNRRDCTDAVFLQLCSVVRDMSVDVRVEVFKAFGIIGTASESIILQTLSKKVLGAGKGKKPQNLLSNGSADVSSAAGVYIHGFEDEFYEVREAAVDSFHSLSVNSIKFPDEAVYLLMDMLYDDYMVVRLKALKALHHIADLGNLKIQETYMPAFLDAIVDTSENIRVEARNILKLAKLPDLKLVNKCIDGVLKSLEMYPQDEPDILSALFHFGQNHTNFLVSMVKRFSEKLGTASGSKAEFNSRQLSASLTLIISAPLSNKQSITSIPPLAFSYSLAMLGKFSSGLHDMMDQDMLLAYLTHCAILSSSSGTEFNKGDVFFHAYRDSNADLAGNPVLLPGKDIPAESKYMACKAELEIGNQALKFVNHILLKIKAAWLLSQSGCSKEALRALRACKQELATLTADSSISKGTLDFICQYVHVIELLVQVWPHFNYSRHISTCSSVEVELLMEEVEIKLMEIRCRFTGLSTEESLVLELVIFGCLLRLYKFEICCRLSCMEKLSSTISQLELHHEQQCTKPSDFLTETKKSLEEFGSSDDINSCRLLDLIKIFKCFSPEQFTFSVNLQCVSAEVEVPGNGPYSPISFVPGLPVAIPCEITLLNVPRDTCLWLRISRNDETCQFVYLDPNLYNGNGREKRFMFTAVTYMTPRAVVFTLRVSIGIECLFEDICYRKQRHGPKHPVAYLCKEREIHLSLVSRT
